These results are taken from PubChem BioAssay AID328 (DTP/NCI, 2004).

The list shows only some results of the screen, not a fair sample: it gathers tests that were run many times, whatever their T/C, doses with no T/C, and many T/C values between a quarter and a half above the control. Other doses and runs of a compound stand elsewhere. T/C: endpoint of the treated group in % of that of the vehicle group. Some doses have a count of surviving animals in place of a T/C: the source files T/C as zero there, which appears to mark a toxic dose or a test without result, not a measured value. Some doses without a T/C left all or most animals alive at the check, yet need not have been tolerated: survival well below the control is almost never listed, so the zero probably covers shortened survival too. Survivors were counted at the toxicity check, usually on the fifth day, unless a day is given; later deaths do not show. Schedules are NCI's codes, read here as Q, the interval in days (D) or hours (H), X, the number of doses. For survival time, this PubChem deposit counts one and a half times the control or more as active, and values a quarter to a half above the control carry no call in these data; other NCI protocols may use other cut-offs. Some doses were run more than once; the results are listed from low to high.

The test system of this assay is BDF1 mice, P388 leukemia ip, median survival T/C. The assay can be described thus: NCI In Vivo Anticancer Drug Screen. Data for tumor model P388 Leukemia (intraperitoneal) in B6D2F1 (BDF1) mice. To be noted: T/C endpoint: median survival time, higher T/C = longer survival. A digest of the protocol: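 Steps: implant the tumour, treat one group with compound and another with vehicle, record survival, then divide treated by control.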

Where [1] appears, read: dose: 6.0 mg/kg/injection, schedule: Q01DX009 (ip), vehicle: saline with Tween-80.
The mark [2] stands for this setting: dose: 25.0 mg/kg/injection, schedule: Q01DX009 (ip), vehicle: saline with Tween-80.
[3] abbreviates: dose: 100.0 mg/kg/injection, schedule: Q01DX009 (ip), vehicle: saline with Tween-80.
[4] abbreviates: dose: 200.0 mg/kg/injection, schedule: Q01DX009 (ip), vehicle: saline with Tween-80.
Where [5] appears, read: dose: 400.0 mg/kg/injection, schedule: Q01DX009 (ip), vehicle: saline with Tween-80.
[6] abbreviates: dose: 25.0 mg/kg/injection, schedule: Q01DX009 (ip), vehicle: saline.
Setting [7] is: dose: 50.0 mg/kg/injection, schedule: Q01DX009 (ip), vehicle: saline with Tween-80.

For the compound `COc1ccc2c(c1OC)C1(CCN(C)C)CC(=O)CCC1C=C2` (stereo not given), the survivor count runs as follows: (dose: 200.0 mg/kg/injection, schedule: Q04DX003 (ip), vehicle: Klucel (hydroxypropylcellulose) (HPC)) 6 of 6; (dose: 270.0 mg/kg/injection, schedule: Q01DX009 (ip), vehicle: Klucel (hydroxypropylcellulose) (HPC)) 0 of 6; (dose: 400.0 mg/kg/injection, schedule: Q04DX003 (ip), vehicle: Klucel (hydroxypropylcellulose) (HPC)) 0 of 6.
In the case of `CC(C)C1=CC2=C[C@H](O)[C@H]3C(C)(C)CCC[C@]3(C)C2=C(O)C1=O`, the T/C (dose: 5.0 mg/kg/injection, schedule: Q01DX010 (ip), vehicle: other) is 130 % of control. Besides, the survivor count reads like this: (dose: 20.0 mg/kg/injection, schedule: Q01DX010 (ip), vehicle: other) 1 of 6; (dose: 40.0 mg/kg/injection, schedule: Q01DX010 (ip), vehicle: other) 0 of 6.
Turning to `CCN(CCP(c1ccccc1)c1ccccc1)CCP(c1ccccc1)c1ccccc1`, the T/C was 125 % of control (dose: 1.7 mg/kg/injection, schedule: Q01DX009 (ip), vehicle: saline with Tween-80); 125 % of control (dose: 2.6 mg/kg/injection, schedule: Q01DX009 (ip), vehicle: saline with Tween-80); 133 and 144 % of control (dose: 4.0 mg/kg/injection, schedule: Q01DX009 (ip), vehicle: saline with Tween-80); 140 % of control under setting [1]; 148 % of control (dose: 9.0 mg/kg/injection, schedule: Q01DX009 (ip), vehicle: saline with Tween-80); 145 % of control (dose: 150.0 mg/kg/injection, schedule: Q04DX003 (ip), vehicle: saline with Tween-80). The survivor count is, setting by setting: under setting [2], 2 of 6; under setting [3], 4 of 6.
For the compound `Nc1nc(N)c2cc(CNc3ccc(C(=O)NC(CC(=O)O)CC(=O)O)cc3)ccc2n1`, the survivor count was 6 of 6 under setting [4] and 6 of 6 (dose: 300.0 mg/kg/injection, schedule: Q01DX009 (ip), vehicle: saline with Tween-80).
Take `O=C(NC(=S)N1CC1)c1ccccc1`: the survivor count under setting [5] is given as 6 of 6.
As for `CCCCCCC(C)NCC(O)COc1cccc(C)c1` (stereo not given), the T/C (dose: 6.25 mg/kg/injection, schedule: Q01DX009 (ip), vehicle: Klucel (hydroxypropylcellulose) (HPC)) is 130 % of control. Also, the survivor count (dose: 50.0 mg/kg/injection, schedule: Q01DX009 (ip), vehicle: Klucel (hydroxypropylcellulose) (HPC)) is listed as 5 of 6.
In the case of `O=C(NNc1ccccc1)C12CC3CC(CC(C3)C1)C2`, the survivor count under setting [4] is on record as 6 of 6.
Regarding `CC[C@@]1(O)C[C@H](OC2CC(N(C)C)C(O)C(C)O2)c2c(O)c3c(c(O)c2[C@H]1OC1CC(N(C)C)C(O)C(C)O1)C(=O)c1cccc(O)c1C3=O` (stereo not given in full), the T/C (dose: 0.13 mg/kg/injection, schedule: Q01DX010 (ip), vehicle: saline) is 131 % of control. In addition, the survivor count (dose: 0.5 mg/kg/injection, schedule: Q01DX010 (ip), vehicle: saline) is recorded as 6 of 6 and the survivor count (dose: 1.0 mg/kg/injection, schedule: Q01DX010 (ip), vehicle: saline) was 6 of 6.
Regarding `CC(C)CCOC(=O)C(Br)c1ccccc1` (stereo not given), the T/C is 138 and 145 % of control under setting [3]; 145 % of control under setting [4]. The survivor count under setting [5] was 6 of 6.
Regarding `CC1CN1P(=O)(OCCCl)N1CC1C` (stereo not given), the T/C is, setting by setting: (dose: 100.0 mg/kg/injection, schedule: Q04DX003 (ip), vehicle: saline) 127 % of control; (dose: 200.0 mg/kg/injection, schedule: Q04DX003 (ip), vehicle: saline) 136 % of control. Moreover, where the note is “dose: 400.0 mg/kg/injection, schedule: Q04DX003 (ip), vehicle: saline”, the survivor count is 4 of 6.
Regarding `Cc1c2c(nn1-c1ccccn1)C(=O)C=C(Nc1ccccc1)C2=O`, the survivor count is given as 6 of 6 (dose: 17.5 mg/kg/injection, schedule: Q01DX009 (ip), vehicle: carboxymethylcellulose (CMC)); 6 of 6 (dose: 35.0 mg/kg/injection, schedule: Q01DX009 (ip), vehicle: carboxymethylcellulose (CMC)); 6 of 6 (dose: 70.0 mg/kg/injection, schedule: Q01DX009 (ip), vehicle: carboxymethylcellulose (CMC)).
As for `CCCCCCCCCCCC[N+](C)(C)CCC[N+](C)(C)CCCCCCCCCCCC`, the survivor count is reported as 0 of 6 under setting [6], 1 of 6 under setting [7], 0 of 6 under setting [3] and 0 of 6 under setting [4].
For the compound `O=C(/C=C/c1ccc2c(c1)OCO2)c1ccccc1`, the survivor count (dose: 200.0 mg/kg/injection, schedule: Q01DX009 (ip), vehicle: Klucel (hydroxypropylcellulose) (HPC)) is listed as 4 of 6.
With `Cc1ccc(Sc2cccc3c(C)c4cccc5c4c(c23)C[S+]5c2ccc(C)cc2)cc1` (stereo not given), the T/C reads like this: (dose: 1.5 mg/kg/injection, schedule: Q01DX009 (ip), vehicle: saline with Tween-80) 125 % of control; (dose: 3.0 mg/kg/injection, schedule: Q01DX009 (ip), vehicle: saline with Tween-80) 129 % of control. The survivor count under setting [1] is listed as 6 of 6.
On to `O=[N+]([O-])c1cccc2c[n+](Cc3ccc(Br)cc3)ccc12`, for which the T/C under setting [2] was 134 % of control. Further, under setting [7], the survivor count is 3 of 6.
Turning to `CC([NH-])C(=O)O.CC([NH-])C(=O)O.CC([NH-])C(=O)O.[Co+3]` (stereo not given), the survivor count by setting is: (dose: 200.0 mg/kg/injection, schedule: Q01DX009 (ip), vehicle: water) 0 of 6; (dose: 400.0 mg/kg/injection, schedule: Q04DX003 (ip), vehicle: water) 0 of 6.
`Cc1cc(=O)[nH]c(N/N=C/c2ccco2)n1`: the survivor count (dose: 100.0 mg/kg/injection, schedule: Q01DX009 (ip), vehicle: gum acacia) was 0 of 6; the survivor count (dose: 200.0 mg/kg/injection, schedule: Q01DX009 (ip), vehicle: gum acacia) is listed as 0 of 6; the survivor count (dose: 400.0 mg/kg/injection, schedule: Q01DX009 (ip), vehicle: gum acacia) was 0 of 6; the survivor count (dose: 400.0 mg/kg/injection, schedule: Q04DX003 (ip), vehicle: gum acacia) was 4 of 6.
Turning to `CCCCCCCOc1cccc(OCCCC[N+]2(CC)CCCCC2)c1`, the survivor count was 1 of 6 (dose: 12.5 mg/kg/injection, schedule: Q01DX009 (ip), vehicle: saline) and 0 of 6 under setting [6].
